What all share (assay): protein microarray (ProtoArray v5.0), streptavidin-Alexa Fluor 647
Conditions in all cases: 3'-biotin; 20 mM Tris (pH 7.5), 5 mM MgCl2, 100 mM KCl, 0.1% Tween-20, A/T-rich and random oligonucleotide blockers; temperature not stated; high values mean tight binding

Assay [1] concerns PPT2 (human).
For assay [2], the system named is PQLC2 (human).
For assay [3], the system named is PRAME (human).
Assay [4] concerns PRAP1 (human).
Assay [5] has as its system PRCP (human).
In assay [6] the test system is PRDX2 (human).
Assay [7] concerns PRDX3 (human).
For assay [8], the system named is PRDX4 (human).
For assay [9], the system named is PRELI domain-containing protein 2 (human).
Assay [10] deals with PRELID1 (human).

The list shows a part of the results.

With “GGGAGGCTGAGGCAGG [G4-1 biotinylated (PQS2)]”, the binding signal in [1] was -0.359 z-score; in [2], -0.263 z-score; in [3], -0.302 z-score; in assay [4], -0.298 z-score; in assay [5] it was -0.341 z-score; in [6], -0.372 z-score. Further, the binding signal in assay [7] is -0.35 z-score; in assay [8], -0.297 z-score; in assay [9], -0.342 z-score; in [10] it was -0.315 z-score.

(Values after article PMC5996148.)
